Among the data in paper PMC4879264 are binding values, retold here.

The chains behind the UniProt entries cited, without tags or fusion partners.
UniProt P45481: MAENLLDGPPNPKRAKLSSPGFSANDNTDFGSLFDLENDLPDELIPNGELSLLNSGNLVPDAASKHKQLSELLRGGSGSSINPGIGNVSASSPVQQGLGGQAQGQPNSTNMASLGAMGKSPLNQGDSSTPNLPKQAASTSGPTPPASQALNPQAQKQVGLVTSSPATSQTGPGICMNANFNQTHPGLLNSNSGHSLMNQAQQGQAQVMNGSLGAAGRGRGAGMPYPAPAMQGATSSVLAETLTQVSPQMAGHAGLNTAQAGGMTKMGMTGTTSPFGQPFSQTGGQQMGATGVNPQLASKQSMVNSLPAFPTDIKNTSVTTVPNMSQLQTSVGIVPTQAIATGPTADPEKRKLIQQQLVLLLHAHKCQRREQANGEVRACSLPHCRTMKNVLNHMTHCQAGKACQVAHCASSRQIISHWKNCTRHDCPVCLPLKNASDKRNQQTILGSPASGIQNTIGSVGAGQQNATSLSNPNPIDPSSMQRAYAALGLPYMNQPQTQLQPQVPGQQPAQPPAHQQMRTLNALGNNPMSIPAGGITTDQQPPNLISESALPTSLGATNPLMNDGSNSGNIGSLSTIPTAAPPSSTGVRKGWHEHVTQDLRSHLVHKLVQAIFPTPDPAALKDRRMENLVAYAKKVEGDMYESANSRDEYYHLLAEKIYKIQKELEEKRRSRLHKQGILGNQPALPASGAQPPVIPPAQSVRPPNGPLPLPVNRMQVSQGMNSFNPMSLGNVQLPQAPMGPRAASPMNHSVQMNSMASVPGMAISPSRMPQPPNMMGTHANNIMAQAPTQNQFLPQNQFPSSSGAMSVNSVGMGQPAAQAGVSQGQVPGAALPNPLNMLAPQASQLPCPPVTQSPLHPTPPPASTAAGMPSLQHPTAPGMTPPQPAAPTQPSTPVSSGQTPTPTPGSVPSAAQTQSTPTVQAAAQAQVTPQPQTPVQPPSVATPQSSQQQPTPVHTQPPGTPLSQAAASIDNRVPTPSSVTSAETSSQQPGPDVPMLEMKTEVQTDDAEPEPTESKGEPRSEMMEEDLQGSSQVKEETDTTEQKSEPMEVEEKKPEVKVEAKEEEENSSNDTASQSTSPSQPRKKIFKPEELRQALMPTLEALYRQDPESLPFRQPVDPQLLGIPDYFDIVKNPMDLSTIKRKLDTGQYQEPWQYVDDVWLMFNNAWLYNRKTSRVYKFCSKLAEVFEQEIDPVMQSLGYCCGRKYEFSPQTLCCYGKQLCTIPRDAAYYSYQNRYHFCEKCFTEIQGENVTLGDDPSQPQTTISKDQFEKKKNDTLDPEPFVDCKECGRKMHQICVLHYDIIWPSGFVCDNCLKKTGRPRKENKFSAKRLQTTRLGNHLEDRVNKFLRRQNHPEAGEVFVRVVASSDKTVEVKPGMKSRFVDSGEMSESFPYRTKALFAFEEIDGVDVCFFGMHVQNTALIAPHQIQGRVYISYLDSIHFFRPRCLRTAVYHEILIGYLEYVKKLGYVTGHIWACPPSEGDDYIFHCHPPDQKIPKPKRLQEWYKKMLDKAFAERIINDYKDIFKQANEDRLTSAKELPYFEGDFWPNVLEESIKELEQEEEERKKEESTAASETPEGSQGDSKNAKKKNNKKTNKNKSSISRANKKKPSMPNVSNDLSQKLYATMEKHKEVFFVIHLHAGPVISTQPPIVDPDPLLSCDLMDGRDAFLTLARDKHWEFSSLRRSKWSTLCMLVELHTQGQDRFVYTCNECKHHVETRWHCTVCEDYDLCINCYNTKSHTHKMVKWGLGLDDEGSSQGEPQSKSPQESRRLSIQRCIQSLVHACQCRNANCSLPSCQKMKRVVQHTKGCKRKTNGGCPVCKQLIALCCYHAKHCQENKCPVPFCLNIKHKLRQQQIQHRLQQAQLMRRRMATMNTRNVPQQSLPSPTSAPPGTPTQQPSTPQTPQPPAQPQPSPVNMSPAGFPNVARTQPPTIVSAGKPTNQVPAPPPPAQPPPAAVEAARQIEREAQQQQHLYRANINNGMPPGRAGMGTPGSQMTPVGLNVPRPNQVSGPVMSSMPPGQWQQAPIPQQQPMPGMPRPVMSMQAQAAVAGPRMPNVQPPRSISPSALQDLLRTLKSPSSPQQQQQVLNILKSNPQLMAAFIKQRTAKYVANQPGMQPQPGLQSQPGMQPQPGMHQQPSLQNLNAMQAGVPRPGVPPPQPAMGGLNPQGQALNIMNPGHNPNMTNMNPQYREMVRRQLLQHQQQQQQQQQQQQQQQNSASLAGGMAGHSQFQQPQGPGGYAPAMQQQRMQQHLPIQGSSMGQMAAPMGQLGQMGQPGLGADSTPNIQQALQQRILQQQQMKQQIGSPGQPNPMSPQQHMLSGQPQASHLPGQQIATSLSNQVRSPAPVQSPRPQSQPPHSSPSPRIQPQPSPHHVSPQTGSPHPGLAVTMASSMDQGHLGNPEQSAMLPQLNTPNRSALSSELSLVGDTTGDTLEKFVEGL

No constants are given. Whether binding was seen depends on the method and setting. In cells and extracts the contact can be indirect. Some binding calls cover weakened binding; strength is not graded here.

The chains are these.
B1: MED16 (protein, UniProt Q6PGF3 1-828)
chain: MDLAYVCEWEKWAKSTYCPSLPLACAWSCRNLIAFTTDLRNDDQDLTHMIHILDTEHPWEVHSVSSGHSEAITCLEWDQSGSRLLSADADGQIKCWSMADHLANSWESSVGSQVEGDPIVALSWLHNGVKLALHVEKSGASSFGEKFSRVKFSPSLTLFGGKPMEGWIAVTVSGLVTVSLLKPSGQVLTSTESLCRLRGRVALADIAFTGGGNIVVAAADGSSASPVKFYKVCVSVVSEKCRIDTEILPSLFMRCTTDPNRKDRFPAITHLKFLARDMSEQVLLCASSQTSSLVECWSLRKEGLPVNNIFQQISPVVGDKQPMILKWRILSATNDLDRVSAVALPKLPISLTNTDLKVASDTQFYPGLGLALAFQDGSVHMVHRLSLQTMAVFYSSAPRSLDEPALKRPRTTCPAVHFKAMQLSWTSLALVGIDNHGKLSMLRISPSLGHPLEPKLALQHLLFLLEYCMVTGYDWWDILLHVQPGMVQSLVERLHEEYTRQKPALQQVLSTRILAMKASLCKLSPCTVARVCDYHTKLFLMAITSTLKSLLRPHFLNTPDKSPGDRLAEICAKITDVDIDKVMINLKTEEFVLDMNTLQALQQLLQWVGDFVLYLLVSLPNQGSPLRPGHSFLRDGTSLGMLRELMVVIRIWGLLKPSCLPVYTATSDTQDSMSLLFRLLTKLWICCRDEGAASEPDEGLVDECCLLPSQLLVPNLDWLPASDGLVSRLQPKQPLRLRFGRAPTLPSSTSTLQLDGLTRAPGQPKIDHLRRLHLGAYPTEECKACTRCGCVTMLKSPNKTTAVTQWEQRWIKNCLCGGLWRRVPLSCS
B2: MED24 (protein, UniProt Q99K74 1-987)
chain: MKVVNLKQAILQAWKERWSDYQWAINMKKFFPKGATWDILNLAEALLEQAMIGPSPNPLILSYLKYAISSQMVSCSSVLTAISKFDDFSRDLCVQALLDIMDMFCDRLSCHGKAEECIGLCRALLSALHWLLRCTAASAERLQEGLEAGTPAPGEKQLALCLQCLEKTLSSTKNRALLHIAKLEEASSWTAIEHSLLKLGEILANLSNPQLRSQAERCGTLIRSIPSMLSVHSEQLHKTGFPTIHALILLEGTMNLTGEMQPLVEQLMMVKRMQHIPTPLFVLEIWKACFVGLIESPEGTQELKWTAFTYLKIPQVLVKLKKYFHGEKDFTEDVNCAFEFLLKLTPLLDKADQRCNCDCTNFLLQECNKQGLLSEVNFASLVGKRTADRDPQLKSSENANIQPNPGLILRAEPTVTNILKTMDADHSKSPEGLLGVLGHMLSGKSLDLLLAAAAATGKLKSFARKFINLNEFTTHGSGESTKTASVRALLFDISFLMLCHVAQTYGSEVILSESSSGEEVPFFETWMQTCMPEEGKILNPDHPCFRPDSTKVESLVALLNNSSEMKLVQMKWHEACLSISAAILEILNAWENGVLAFESIQKITDNIKGKVCSLAVCAVAWLVAHVRMLGLDEREKSLQMIRQLAGPLYSENTLQFYNERVVIMNSILEHMCADVLQQTATQIKFPSTGVDTMPYWNLLPPKRPIKEVLTDIFAKVLEKGWVDSRSIHILDTLLHMGGVYWFCNNLIKELLKETRKEHTLRAVQLLYSIFCLDMQQVTLVLLGHILPGLLTDSSKWHSLMDPPGTALAKLAVWCALSSYSSHKGQASSRQKKRHREDIEDYVSLFPVEDMQPSKLMRLLSSSDDDANILSSPTDRSMNSSLSASQLHTVNMRDPLNRVLANLFLLISSILGSRTAGPHTQFVQWFMEECVGCLEQDSRGSILQFMPFTTVSELVKVSAMSSPKVVLAITDLSLPLGRQVAAKAIAAL

The experiment deals with T1, Nrf2 (NF-E2-related factor-2) (mouse (endogenous in Raw264.7)) (UniProt Q60795).
T1 sequence: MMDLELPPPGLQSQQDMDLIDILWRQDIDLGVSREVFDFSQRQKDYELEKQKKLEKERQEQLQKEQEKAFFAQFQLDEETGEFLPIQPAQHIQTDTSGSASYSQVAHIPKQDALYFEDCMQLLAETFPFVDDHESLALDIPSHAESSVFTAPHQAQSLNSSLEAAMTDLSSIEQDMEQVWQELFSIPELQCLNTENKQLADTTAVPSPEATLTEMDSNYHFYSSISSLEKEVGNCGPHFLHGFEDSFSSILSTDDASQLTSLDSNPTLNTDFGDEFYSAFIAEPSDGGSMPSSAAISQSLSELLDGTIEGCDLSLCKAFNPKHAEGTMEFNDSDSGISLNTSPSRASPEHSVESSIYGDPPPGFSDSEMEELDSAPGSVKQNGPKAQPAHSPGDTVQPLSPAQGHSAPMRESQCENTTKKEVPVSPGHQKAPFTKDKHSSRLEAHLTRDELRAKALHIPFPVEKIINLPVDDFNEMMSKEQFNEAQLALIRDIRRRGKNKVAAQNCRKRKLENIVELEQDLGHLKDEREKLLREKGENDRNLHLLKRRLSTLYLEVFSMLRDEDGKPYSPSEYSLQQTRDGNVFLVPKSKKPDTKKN
As to the kind of experiment: co-IP; Raw264.7 cells treated 4 h with 100 uM DEM with or without 20 ng/ml LPS; cells crosslinked with 0.5 mM DTME and 0.5 mM DSP, lysed in RIPA buffer; immunoprecipitation with an Nrf2-specific antibody, immunoblot of the precipitate. Background: A western blot detects proteins with antibodies after separation by electrophoresis.
In the case of CBP (from UniProt P45481 1-2441), the binding result is “binds”. For the molecule B1, the binding result was “binds”. Consider B2, for which the binding entry was “binds”.
